# Data taken from PubChem BioAssay AID493014 (National Center for Advancing Translational Sciences (NCATS), 2011).
# This is one part of the list. Shown are side measurements of this screen, not its main read-out; they come without a call. Compounds called inactive in the main read-out are mostly missing here. Potencies come from curve fits of mixed quality, noted in brackets.
# Test: qHTS Assay to Find Inhibitors of Chronic Active B-Cell Receptor Signaling
# Details: ABC-DLBCL IkBa-CBG/CBR reporter, luminescence ratio (green luciferase fused to IkBa over red control in TMD8 lymphoma cells), 4 h
# Outline: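 Cell line TMD8 (human ABC DLBCL), stably expressing tet-inducible CBG68-IkBa fusion and CBR; IMDM/0.5% FBS; cpd up to 46 uM; dox induction, 4 h, 37C/5% CO2; dual luminescence; green/red ratio; MG132 control.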
# [1] = measured here: CBR red luminescence, cell number
# [2] = measured here: IkBa-CBG green luminescence
Structure (SMILES),AC50 [1],AC50 [2]
COc1cc(C(=O)NC2CCCc3ccccc32)ccc1OCC(=O)Nc1ccc(F)cc1 (configuration not stated),"2.59 µM [rising, single point]",–
C/C(CC(=O)Nc1cccc(Cl)c1Cl)=N\NC(=O)c1ccccc1Br,"20 µM [falling, partial curve, poor fit]",–
CC1S/C(=C(\C#N)C(=O)NCc2ccco2)N(Cc2ccco2)C1=O (configuration not stated),"8.91 µM [falling, partial curve, poor fit]",–
Cc1csc(NC(=O)c2sccc2C)n1,"14.1 µM [falling, partial curve, poor fit]",–
Cc1ccc(NC(=O)CO/N=C(\N)c2nonc2N)cc1,"18.4 µM [falling, single point]",–
CCOC(=O)N1CCc2c(sc(NCc3sccc3C)c2C(=O)Nc2ccc(OC)cc2OC)C1,"35.5 µM [falling, single point]",–
COc1ccc(C2=CN3CCCCC3CC2=O)cc1OC (configuration not stated),"10.3 µM [rising, partial curve]",–
COC(=O)c1ccc(NC(=O)CNC(=O)c2sc3ccccc3c2Cl)cc1,"0.00651 µM [falling, full curve, poor fit]",–
Cn1ncc2c(N3CCN(c4cccc(Cl)c4)CC3)ncnc21,"35.5 µM [rising, single point]",–
Cc1cccc(-c2nc(C#N)c(N3CCCCCC3)o2)c1,"18.4 µM [rising, partial curve]",–
Nc1ccc(C(=O)OCC(=O)NC2CCCc3ccccc32)cc1[N+](=O)[O-] (configuration not stated),"2.31 µM [falling, partial curve, poor fit]",–
COc1ccc(-n2nnnc2-c2ccccc2)cc1,"0.517 µM [falling, partial curve, poor fit]",–
COc1ccc(C(=O)COC(=O)CNC(=O)c2ccc(OC)cc2)cc1,"5.62 µM [falling, single point]",–
Brc1cccc(OCCOCCn2ccnc2)c1,"29.1 µM [rising, single point]",–
O=C(NCc1ccc(Cl)cc1)Nc1ccc(F)cc1,"2.51 µM [rising, full curve, poor fit]",–
CCOc1ccc(NC(=O)N(C2CCCC2)C2CCN(C(C)=O)CC2)cc1,"10 µM [rising, partial curve, poor fit]",–
Cc1nc2ccccc2n1CC(=O)N/N=C/c1cccnc1,"12.6 µM [rising, partial curve, poor fit]",–
O=C(COc1cc(F)ccc1[N+](=O)[O-])NCC1CCCO1 (configuration not stated),"0.58 µM [falling, full curve]",–
COc1ccc(-n2c(-c3ccc(OC)c(OC)c3)n[nH]c2=S)cc1,"35.5 µM [rising, single point]",–
N#CCCN/N=C(/Cc1nc2ccccc2[nH]1)c1cccc(Cl)c1,"2.59 µM [falling, full curve, poor fit]",–
CN(C(=O)c1cccnc1)c1nc(-c2ccccc2)cs1,"11.2 µM [rising, partial curve]",–

# A second format for part of the listing above:
Structure (SMILES) | AC50 [1] | AC50 [2]
Cc1nc2ccccc2n1CC(=O)N/N=C/c1cccnc1 | 12.6 µM [rising, partial curve, poor fit] | –
O=C(COc1cc(F)ccc1[N+](=O)[O-])NCC1CCCO1 (configuration not stated) | 0.58 µM [falling, full curve] | –
COc1ccc(-n2c(-c3ccc(OC)c(OC)c3)n[nH]c2=S)cc1 | 35.5 µM [rising, single point] | –
N#CCCN/N=C(/Cc1nc2ccccc2[nH]1)c1cccc(Cl)c1 | 2.59 µM [falling, full curve, poor fit] | –

# The listing continues:

Structure (SMILES),AC50 [1],AC50 [2]
COc1ccc([C@H]2CC(=O)C=C(c3cccc(OC)c3OC)C2)cc1OC,"32.6 µM [falling, single point]",–
COc1ccc(-c2cc(C(F)(F)F)nc(SCCC(=O)NCc3ccccc3)n2)cc1,"25.9 µM [rising, partial curve, poor fit]",–
Cc1ccc(Nc2nc(N)c([N+](=O)[O-])c(N3CCCC(C)C3)n2)cc1C (configuration not stated),"0.411 µM [rising, partial curve, poor fit]",–
CC(=O)Nc1ccc(S(=O)(=O)NCCC(=O)OCCN2C(=O)c3ccccc3C2=O)cc1,"35.5 µM [rising, single point]",–
COc1ccc(NC(=O)CN(C)C(=O)CN2C(=O)c3ccc([N+](=O)[O-])cc3C2=O)cc1,"0.1 µM [rising, full curve, poor fit]",–
COc1ccc(CCNC(=O)CCC(=O)n2ncc3cc(C)ccc32)cc1OC,"3.55 µM [rising, full curve, poor fit]",–
CCn1cc(C(=O)NC(=S)Nc2ccccc2Br)cn1,"3.98 µM [falling, single point]",–
CCN(C(=O)c1cc2c(=O)n3cccc(C)c3nc2n1CCCOC)C1CCCCC1,"12.6 µM [falling, single point]",–
Cc1ccccc1Nc1nc(-c2sc(NC(=O)c3cccc(Cl)c3)nc2C)cs1,"8.91 µM [falling, partial curve, poor fit]",–
COc1ccc(-c2ccc(SCC(=O)Nc3cccc(C(C)=O)c3)nn2)cc1OC,"12.6 µM [falling, partial curve]",–
Cc1cc(Oc2ccccc2)nc2ccc(O)cc12,"3.98 µM [rising, full curve, poor fit]",–
CN(C)c1ccc(C(=O)c2ccc(N(C)C)c3ccccc23)cc1,"0.651 µM [rising, full curve, poor fit]","0.651 µM [falling, full curve]"
CC1=NNC(=O)/C1=C\c1cn(-c2ccccc2)nc1-c1ccc(F)cc1,"35.5 µM [falling, single point]","20 µM [rising, single point]"
CCCC(=O)Nc1ccc(C(=O)NCC(=O)OCC)cc1,"14.6 µM [rising, partial curve]",–
c1csc(-c2nnc(-c3ccc(N4CCOCC4)cc3)o2)c1,"35.5 µM [rising, partial curve, poor fit]",–
O=C(NCCc1ccccc1)C(=O)NCC1OCCN1S(=O)(=O)c1ccc2c(c1)OCCO2 (configuration not stated),"25.1 µM [falling, single point]",–
CCOC(=O)Cc1csc(SCC(=O)NC2CCCC(C)C2C)n1 (configuration not stated),"25.9 µM [rising, single point]",–
CCOC(=O)c1cc2c(ccn2-c2ccc(F)cc2)n1CC(=O)N1CCN(C(=O)c2ccco2)CC1,"0.501 µM [rising, full curve, poor fit]",–
Cc1cc(C(=O)COC(=O)c2cc(O)c3ccccc3c2O)c(C)n1CC1CCCO1 (configuration not stated),"22.4 µM [falling, single point]",–
COc1cc(/C=C/C(=O)N(C)CC(=O)Nc2ccccc2SC)cc(OC)c1OC,"1.64 µM [rising, full curve, poor fit]",–
CCOC(=O)N1CCN(c2c(NCCCN(CC)Cc3ccccc3)c(=O)c2=O)CC1,"11.2 µM [falling, partial curve, poor fit]",–

Structure (SMILES),AC50 [1],AC50 [2]
Nc1nc(COC(=O)CCC(=O)c2ccccc2)nc(Nc2ccccc2)n1,"2.31 µM [rising, full curve]",–
COc1ccc(N2C(=O)NC(NC(=O)c3cccnc3)(C(F)(F)F)C2=O)cc1 (configuration not stated),"12.6 µM [rising, single point]",–
CCOC(=O)C1CCCN(C(=S)NC2CCCC2)C1 (configuration not stated),"2.51 µM [rising, full curve, poor fit]",–
CS(=O)(=O)N1CCN(c2ccc([N+](=O)[O-])c3cccnc23)CC1,"35.5 µM [rising, single point]",–
O=C(Nc1c(C(=O)Nc2ccc3c(c2)OCCO3)cnn1-c1ccccc1Cl)c1ccco1,"7.31 µM [falling, partial curve, poor fit]",–
CCn1ccnc1[C@@H]1C[C@H]2CN(c3ccccc3OC)C(=O)[C@]23CCCN13,"0.501 µM [rising, full curve, poor fit]",–
O=C(C[C@H]1C[C@H](C(=O)N2CCOCC2)[C@@]2(CCC3CCCC3)c3[nH]c4ccc(Cl)cc4c3CCN2C1=O)NCCc1ccccn1,"9.2 µM [rising, partial curve]",–
CNC[C@H]1Oc2c(NS(=O)(=O)c3ccccc3)cccc2C(=O)N([C@H](C)CO)C[C@@H]1C,"25.9 µM [rising, single point]",–
Cc1cccc(OCC(=O)NNC(=O)C2CCCCC2C(=O)O)c1 (configuration not stated),"29.1 µM [rising, single point]",–
COC(=O)C1CN(C(=O)C(C)Oc2ccc(C(C)C)cc2)c2ccccc2O1 (configuration not stated),"35.5 µM [falling, single point]",–
CCN1CCN(CC(=O)Nc2ccccc2)C(=O)C1=O,"3.26 µM [falling, full curve, poor fit]",–
COC(=O)c1ccccc1NC(=O)CN1CCC(n2nnc3cc(C(F)(F)F)ccc32)CC1,"6.51 µM [falling, single point]",–
COC(=O)Nc1ccc(C)c2nsnc12,"7.08 µM [rising, full curve, poor fit]",–
Clc1cccc(Cl)c1CNC1CCCC1,"6.51 µM [rising, single point]",–
COc1ccc(N2CCN(CCNC(=O)c3ccc4c(c3)[nH]c(=S)n3c5ccccc5nc43)CC2)cc1,"35.5 µM [falling, single point]","15.8 µM [rising, partial curve, poor fit]"
CCc1noc(C)c1C(=O)OCC(=O)Nc1cccc(C)c1,"32.6 µM [rising, single point]",–
CCN(CC)C(=O)c1cccc(-c2ccc(OC)cc2)c1,"1.03 µM [falling, full curve]","0.651 µM [rising, partial curve, poor fit]"
C[C@H](NC(=O)C1CCN(S(=O)(=O)c2ccccc2)CC1)C(=O)NCc1ccc(Cl)cc1Cl,"7.08 µM [falling, full curve, poor fit]",–
COc1cccc(-c2noc(-c3ccc(Cl)nc3)n2)c1,"0.251 µM [rising, full curve, poor fit]","0.126 µM [rising, full curve]"
CCOC(=O)c1sc(=NC(=O)c2ccco2)n(C)c1C,"6.31 µM [falling, partial curve, poor fit]",–
